This is an account of results in PMC4177392, “Modulation of Cytochrome P450 Metabolism and Transport across Intestinal Epithelial Barrier by Ginger Biophenolics” (PLoS ONE, 2014).

Certain results were filed several times, with different values. This list holds those alone. There may be further records. Results that share an entry differ for a reason that is not stated; some may be repeats, others may stem from another dose, organism or construct than stated.

The subject of the data set is Caco-2 monolayer. Description: Caco-2 permeability assay. Particulars: 10 µM. In general terms: Caco-2 cells form a polarised layer with tight junctions and transporters.

In the case of `CCCCCCCCC[C@H](O)CC(=O)CCc1ccc(O)c(OC)c1` [10G, 10-gingerol], the “Mass Balance (recovery)” value reads like this: (A→B) “less than 50% and 22%”; (B→A) “less than 50% and 44%”.

For `CCCCC/C=C/C(=O)CCc1ccc(O)c(OC)c1` [6S, 6-shogaol], the “Mass Balance (recovery)” value by setting is: (A→B) “less than 25% and 4%”; (B→A) “less than 25% and 21%”.
